In paper doi:10.1101/2022.12.30.522300 (bioRxiv, 2022):
Results are given in words; binding and its absence hold for the method and conditions named. Binding can be weak; no strength is given. For some assays here: Sequences can lack the tags named with a protein. Each block holds one molecule with its values, some of them ahead of it.

Columns and labels:
[1] = target: T1, full-length SAP30BP, from pETM11 (human) (UniProt Q9UHR5); experiment: NMR titration
T1 sequence: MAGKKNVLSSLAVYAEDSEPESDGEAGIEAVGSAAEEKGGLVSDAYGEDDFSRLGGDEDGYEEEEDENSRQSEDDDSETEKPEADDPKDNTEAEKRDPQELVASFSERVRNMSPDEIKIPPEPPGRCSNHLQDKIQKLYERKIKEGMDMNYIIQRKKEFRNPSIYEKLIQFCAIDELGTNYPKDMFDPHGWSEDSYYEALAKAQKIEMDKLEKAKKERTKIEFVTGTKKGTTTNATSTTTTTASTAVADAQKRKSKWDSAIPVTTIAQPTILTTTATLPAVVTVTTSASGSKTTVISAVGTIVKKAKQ

[2] = target: T2, GST-RBM17 (human, UniProt Q96I25 1-401); experiment: pull-down
T2 sequence (looked up): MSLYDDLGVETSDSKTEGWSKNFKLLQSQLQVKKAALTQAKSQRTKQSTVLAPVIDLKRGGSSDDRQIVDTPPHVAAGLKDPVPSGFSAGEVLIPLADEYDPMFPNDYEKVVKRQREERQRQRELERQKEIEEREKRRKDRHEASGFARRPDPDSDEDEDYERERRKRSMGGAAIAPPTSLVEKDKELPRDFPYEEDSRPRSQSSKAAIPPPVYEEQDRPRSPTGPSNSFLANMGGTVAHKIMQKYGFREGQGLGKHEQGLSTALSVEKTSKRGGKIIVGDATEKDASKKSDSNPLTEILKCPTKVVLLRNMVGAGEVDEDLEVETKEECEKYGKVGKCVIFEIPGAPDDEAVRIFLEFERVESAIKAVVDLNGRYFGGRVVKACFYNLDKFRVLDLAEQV

[3] = target: full-length SAP30BP with mutation in the ULM, from pETM11 (human) (UniProt Q9UHR5); experiment: NMR titration

Molecule: SAP30BP/ΔN (GST tag removed) (human) (domain or fragment)
binding [2]: binds

Molecule: SAP30BP/ΔNΔC (GST tag removed) (human) (domain or fragment)
binding [2]: no binding

B1: full-length RBM17, from pETM11 (protein, UniProt Q96I25 1-401)
chain: T2 sequence (looked up)
binding [3]: binds

The remaining lines, values ahead:

binding [1]: binds
Molecule: RBM17–UHM (RBM17/ΔNΔG), from pETM11 (human) (domain or fragment)

binding [2]: no binding
Molecule: SAP30BP/ΔC (GST tag removed) (human) (domain or fragment)
